PubChem BioAssay AID1508597 – Cure First – 2020
Aim: 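Knock-downs altering ovarian cancer cell survival with or without PARP inhibitor rucaparib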 (primary screen). Cells: human ovarian carcinoma lines grown from tumours: OCI-P5x (papillary serous) and OCI-C5x (clear cell). Reagent: siRNA pool against human genes, 1.25 pmol siRNA per well. Duration: 72 h or 96 h, depending on the cell culture. Challenge: rucaparib 20 µM (about IC30) or vehicle, present until read-out. Rucaparib or vehicle: Vehicle. Cell line: OCI-P5x (serous). Read-out: 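ATP luminescence measured at 72 or 96 h according to the culture, then normalised and expressed as percent viability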. Direction: viability, normalised: higher = more viable cells remaining. Hit rule: 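a well counts as a hit if its normalised viability is under 80 percent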. Calls: active = viability under 80%; inactive = viability 80% or more.
Shown is a random part of the about 2,100 reagents, in one setting of the screen. 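Calls flag viability under 80% in either arm, not effects specific to rucaparib; the reference for percent is not stated.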 Unmarked entries are inactive. Some reagents were tested in more than one well and are listed for each. Not given: the 100% reference.

gene knocked down	technical replicate	viability, normalised (%)
BCKDK	1	61.2 (active)
BCKDK	2	58 (active)
BCKDK	3	68.5 (active)
BRWD1	1	61 (active)
BRWD1	2	45.4 (active)
BRWD1	3	66.8 (active)
HMGB1	1	95.5
HMGB1	2	101
HMGB1	3	93.6
MPG	1	101
MPG	2	67.5 (active)
MPG	3	89.6
TRMT6	1	72.2 (active)
TRMT6	2	67.3 (active)
TRMT6	3	95.5
SLC2A9	1	46.5 (active)
SLC2A9	2	58.9 (active)
SLC2A9	3	65.5 (active)
MAPK3	1	103
MAPK3	2	68.4 (active)
MAPK3	3	99.7
TAF6L	1	73 (active)
TAF6L	2	58.1 (active)
TAF6L	3	93
EHMT1	1	66.6 (active)
EHMT1	2	77.1 (active)
EHMT1	3	90.3
UHRF1	1	50.1 (active)
UHRF1	1	77.3 (active)
UHRF1	2	65.2 (active)
UHRF1	2	56.2 (active)
UHRF1	3	63.9 (active)
UHRF1	3	55.2 (active)

6 entries from above, ordered by “viability, normalised (%)”, ascending.
gene knocked down	technical replicate	viability, normalised (%)
UHRF1	1	50.1 (active)
UHRF1	3	55.2 (active)
UHRF1	2	56.2 (active)
UHRF1	3	63.9 (active)
UHRF1	2	65.2 (active)
UHRF1	1	77.3 (active)

More results follow.
gene knocked down	technical replicate	viability, normalised (%)
ZCCHC13	1	93.1
ZCCHC13	2	77.1 (active)
ZCCHC13	3	83
EPHA6	1	78.1 (active)
EPHA6	2	75.1 (active)
EPHA6	3	74.1 (active)
PDE3A	1	71.1 (active)
PDE3A	2	71.7 (active)
PDE3A	3	74.7 (active)
ESR1	1	71.3 (active)
ESR1	2	49.2 (active)
ESR1	3	71.1 (active)
LRRK2	1	89.8
LRRK2	2	88.6
LRRK2	3	86.1
TRIB3	1	89.3
TRIB3	2	86.3
TRIB3	3	44.3 (active)
NRBP1	1	63.7 (active)
NRBP1	2	75.2 (active)
NRBP1	3	67.4 (active)
TBL1XR1	1	44 (active)
TBL1XR1	1	89.2
TBL1XR1	2	35.3 (active)
TBL1XR1	2	62.3 (active)
TBL1XR1	3	92.3
TBL1XR1	3	40.1 (active)
